Reference: patent US20220241296A1, “PROCESS FOR THE PREPARATION OF STERILE OPHTHALMIC AQUEOUS FLUTICASONE PROPIONATE FORM A NANOCRYSTALS SUSPENSIONS” (NICOX OPHTHALMICS, INC., priority 2019, published 2022)
At least one read-out could not be matched to a standard name with certainty.

Assay: 14-day repeated dose toxicokinetic study, topical application to eyelid margin
Type: in vivo, Beagle dogs
Details: inhalation data from Advair-Diskuss-NDA-021077
Source text: The purpose of this study was to evaluate the toxicokinetic of fluticasone propionate Form A nanosuspensions of the invention (see Table 10 below) administered via topical application directly to the rim (margin) of upper and lower eyelids of both eyes of Beagle dogs.
Fifty naïve Beagle dogs (25 males and 25 females), approximately 5-6 months old and weighing 5.7 to 8.8 kg for males and females at the outset of the study were assigned to treatment groups (groups 1-4) and to vehicle group.
Male and female Beagle dogs were dosed with fluticasone propionate at 1.6, 9.6, and 32 μg/day (bilateral QD topical application) or at 64 μg/day (bilateral BID topical application) via eye lid applicator directly to the upper and lower eyelids of both eyes once or twice daily (minimum of 6 hours between doses) for 14 consecutive days.
Blood for toxicokinetic evaluation was collected from all animals at selected time points on Days 1 and 14.
Ophthalmology examinations were performed prior to treatment initiation, during the first and second weeks of dosing and during the last week of recovery. Eyes were scored once daily according to the modified Draize scale.
The reversibility of the effects of Fluticasone Propionate nanosuspension was assessed with a 14-day recovery period.

CCC(=O)O[C@]1(C(=O)SCF)[C@H](C)C[C@H]2[C@@H]3C[C@H](F)C4=CC(=O)C=C[C@]4(C)[C@@]3(F)[C@@H](O)C[C@@]21C [Fluticasone Propionate, fluticasone propionate]
Systemic exposure (AUC) at lowest observed adverse effect level of 14-day inhalation toxicity study in dogs relative to ocular dose (versus ocular dose of 0.1% BID): 9 times higher
Systemic exposure (AUC) at lowest observed adverse effect level of 14-day inhalation toxicity study in dogs relative to ocular dose (versus ocular dose of 0.1% QD): 14 times higher
